The text below walks through data of PubChem BioAssay AID330 (DTP/NCI, 2004).

This assay deals with P388 leukemia ip, CD2F1 mice, survival T/C. In words: NCI In Vivo Anticancer Drug Screen. Data for tumor model P388 Leukemia (intraperitoneal) in CD2F1 (CDF1) mice. To be noted: T/C endpoint: median survival time, higher T/C = longer survival.
Setting [1] is: dose: 1.0 mg/kg/injection, schedule: Q01DX009 (ip), vehicle: water.
[2] abbreviates: dose: 2.0 mg/kg/injection, schedule: Q01DX009 (ip), vehicle: water.
Where [3] appears, read: dose: 400.0 mg/kg/injection, schedule: Q01DX001 (ip), vehicle: saline with Tween-80.
Setting [4] is: dose: 200.0 mg/kg/injection, schedule: Q01DX009 (ip), vehicle: saline.
[5] abbreviates: dose: 25.0 mg/kg/injection, schedule: Q01DX009 (ip), vehicle: saline with Tween-80.
Where [6] appears, read: dose: 50.0 mg/kg/injection, schedule: Q01DX009 (ip), vehicle: saline with Tween-80.

The list shows only some results of the screen, not a fair sample: it is rich in T/C values a quarter to a half above the control, in often repeated tests (any T/C) and in doses without a T/C. Other doses and runs of a compound stand elsewhere. T/C: endpoint of the treated group in % of that of the vehicle group. Some entries give survivors of the animals treated and no T/C: the source holds a T/C of zero for them, seemingly a mark for toxic or unscored doses. Some survivor counts are full or nearly so, which does not show that the dose was tolerated: survival well below the control is almost never listed, so the zero probably covers shortened survival too. Survivors were counted at the toxicity check, usually on the fifth day, unless a day is given; later deaths do not show. Schedule codes are those of the source, taken here to give the interval after Q, in days (D) or hours (H), and the number of doses after X. Some entries hold several experiments; the results are listed from low to high. For survival time, this PubChem deposit counts one and a half times the control or more as active, and values a quarter to a half above the control carry no call in these data; other NCI protocols may use other cut-offs. Some T/C values carry the count of animals alive at the toxicity check (mostly the fifth day); where none is given, no animal had died by that day.

Turning to `CCC1CC2CN(CCc3c([nH]c4ccccc34)C(C(=O)OC)(c3cc4c(cc3OC)N(C)C3C(O)(C(=O)OC)C(OC(C)=O)C5(CC)C=CCN6CCC43C65)C2)C1` (stereo not drawn), the T/C by setting is: (dose: 0.1 mg/kg/injection, schedule: Q01DX009 (ip), vehicle: Klucel (hydroxypropylcellulose) (HPC)) 141 % of control; (dose: 0.13 mg/kg/injection, schedule: Q01DX009 (ip), vehicle: water) 147 % of control; (dose: 0.2 mg/kg/injection, schedule: Q01DX009 (ip), vehicle: Klucel (hydroxypropylcellulose) (HPC)) 141 % of control; (dose: 0.25 mg/kg/injection, schedule: Q01DX009 (ip), vehicle: water) 109, 127, 137, 145 % of control; (dose: 0.5 mg/kg/injection, schedule: Q01DX009 (ip), vehicle: water) 109, 133, 157, 190 % of control; under setting [1], 109, 116, 193 % of control [5 of 6 alive]. Moreover, under setting [2], the T/C is 91 [5 of 6 alive] and 173 % of control. The survivor count reads like this: under setting [1], 4 of 6; (dose: 1.6 mg/kg/injection, schedule: Q01DX009 (ip), vehicle: Klucel (hydroxypropylcellulose) (HPC)) 6 of 6; under setting [2], 1 of 6 and 2 of 6; (dose: 3.2 mg/kg/injection, schedule: Q01DX009 (ip), vehicle: Klucel (hydroxypropylcellulose) (HPC)) 6 of 6; (dose: 4.0 mg/kg/injection, schedule: Q01DX009 (ip), vehicle: water) 1 of 6 and 3 of 6; (dose: 4.0 mg/kg/injection, schedule: Q04DX003 (ip), vehicle: water) 6 of 6. Also, the survivor count (dose: 6.4 mg/kg/injection, schedule: Q01DX009 (ip), vehicle: Klucel (hydroxypropylcellulose) (HPC)) is listed as 0 of 6 and the survivor count (dose: 12.8 mg/kg/injection, schedule: Q01DX009 (ip), vehicle: Klucel (hydroxypropylcellulose) (HPC)) is given as 1 of 6.
For the compound `C[n+]1ccc(-c2nc(-c3cc[n+](C)cc3)nc(-c3cc[n+](C)cc3)n2)cc1`, the survivor count (dose: 100.0 mg/kg/injection, schedule: Q01DX001 (ip), vehicle: saline with Tween-80) is 3 of 6; the survivor count (dose: 200.0 mg/kg/injection, schedule: Q01DX001 (ip), vehicle: saline with Tween-80) was 0 of 6; the survivor count under setting [3] is on record as 0 of 6.
For the compound `CC(=O)NC(Cc1cc(I)c(O)c(I)c1)C(=O)O` (stereo not drawn), the survivor count (dose: 400.0 mg/kg/injection, schedule: Q01DX009 (ip), vehicle: saline) was 2 of 6.
With `O=[N+]([O-])c1cnc(Sc2ccncn2)c([N+](=O)[O-])c1`, the survivor count reads like this: (dose: 50.0 mg/kg/injection, schedule: Q01DX009 (ip), vehicle: saline) 4 of 6; (dose: 100.0 mg/kg/injection, schedule: Q01DX009 (ip), vehicle: saline) 3 of 6; under setting [4], 0 of 6.
As to `N/C(Cc1noc2ccccc12)=N\O`, the survivor count under setting [4] was 3 of 6.
Take `CNC[C@@H](O)c1ccc(O)c(O)c1`: the survivor count is on record as 3 of 6 (dose: 6.25 mg/kg/injection, schedule: Q01DX009 (ip), vehicle: suspension in saline); 1 of 6 (dose: 12.5 mg/kg/injection, schedule: Q01DX009 (ip), vehicle: suspension in saline); 0 of 6 (dose: 25.0 mg/kg/injection, schedule: Q01DX009 (ip), vehicle: suspension in saline).
For the compound `CCN(CC)C(C)(C)C(=O)/C=C/c1ccc(C)cc1`, the survivor count (dose: 240.0 mg/kg/injection, schedule: Q01DX005 (ip), vehicle: saline with Tween-80) is reported as 6 of 6.
As for `CC(=O)N(C(C)=O)c1cnc2c(nc3cc(C)ccn32)c1C`, under setting [3], the survivor count is 1 of 6.
In the case of `C[C@]12CC[C@H](O)C[C@@H]1CC[C@@H]1[C@@H]2C(=O)C[C@@]2(C)[C@H]1CC[C@]2(O)C(=O)CBr`, the T/C runs as follows: (dose: 100.0 mg/kg/injection, schedule: Q04DX003 (ip), vehicle: saline with Tween-80) 140 % of control; (dose: 200.0 mg/kg/injection, schedule: Q04DX003 (ip), vehicle: saline with Tween-80) 140 % of control; (dose: 400.0 mg/kg/injection, schedule: Q04DX003 (ip), vehicle: saline with Tween-80) 140 % of control.
As to `Cc1sc(C)c(CCl)c1CCl`, the T/C is 127 % of control (dose: 16.5 mg/kg/injection, schedule: Q01DX009 (ip), vehicle: saline with Tween-80) and 127 % of control under setting [5].
Turning to `CC1=CC(=O)C(O)C2(C)C1CC1OC(=O)C(OC(=O)CC(C)(C)O)C3C(C)C(O)C4(O)OCC13C42` (stereo not drawn), the T/C by setting is: (dose: 1.0 mg/kg/injection, schedule: Q01DX009 (ip), vehicle: saline + alcohol) 125 % of control; (dose: 2.0 mg/kg/injection, schedule: Q01DX009 (ip), vehicle: saline + alcohol) 130 % of control; (dose: 4.0 mg/kg/injection, schedule: Q01DX009 (ip), vehicle: saline + alcohol) 134 and 137 % of control [5 of 6 alive]. The survivor count (dose: 8.0 mg/kg/injection, schedule: Q01DX009 (ip), vehicle: saline + alcohol) is 1 of 6.
As for `O=C1C=C(Cl)C(=O)C(c2ccc(Cl)cc2)=C1`, the survivor count (dose: 25.0 mg/kg/injection, schedule: Q01DX009 (ip), vehicle: Klucel (hydroxypropylcellulose) (HPC)) is given as 6 of 6; the survivor count (dose: 100.0 mg/kg/injection, schedule: Q01DX009 (ip), vehicle: Klucel (hydroxypropylcellulose) (HPC)) is on record as 1 of 6; the survivor count (dose: 200.0 mg/kg/injection, schedule: Q01DX009 (ip), vehicle: Klucel (hydroxypropylcellulose) (HPC)) is 0 of 6.
Consider `CC(C)(C)N1CC1CNC(=O)C(=O)NCC1CN1C(C)(C)C` (stereo not drawn), for which the T/C (dose: 1.56 mg/kg/injection, schedule: Q01DX009 (ip), vehicle: saline with Tween-80) was 137 % of control. Also, the survivor count under setting [5] is 5 of 6 and 6 of 6; the survivor count under setting [6] is 4 of 6, 5 of 6, 6 of 6; the survivor count (dose: 100.0 mg/kg/injection, schedule: Q01DX009 (ip), vehicle: saline with Tween-80) was 2 of 6.
On to `Cc1ccc(C#N)s1`, for which the survivor count under setting [6] is listed as 0 of 6.
For `CN1C(C)(C)CC(C(=O)c2ccccc2)(c2ccccc2)CC1(C)C`, the survivor count (dose: 200.0 mg/kg/injection, schedule: Q01DX005 (ip), vehicle: saline + Tween-80 + alcohol) is reported as 0 of 6.
Take `O=C(Nc1ccccc1)OCc1c(COC(=O)Nc2ccccc2)c(-c2ccc(Cl)c(Cl)c2)n2c1CCC2`: the T/C was 134 % of control (dose: 25.0 mg/kg/injection, schedule: Q01DX005 (ip), vehicle: distilled water + Tween-80); 126 and 145 % of control (dose: 50.0 mg/kg/injection, schedule: Q01DX005 (ip), vehicle: distilled water + Tween-80); 135 % of control (dose: 100.0 mg/kg/injection, schedule: Q01DX005 (ip), vehicle: distilled water + Tween-80); 144 % of control (dose: 200.0 mg/kg/injection, schedule: Q01DX005 (ip), vehicle: distilled water + Tween-80). The survivor count (dose: 400.0 mg/kg/injection, schedule: Q01DX005 (ip), vehicle: distilled water + Tween-80) was 5 of 6.
Turning to `[Co].c1c[nH]cn1.c1c[nH]cn1.c1c[nH]cn1.c1c[nH]cn1.c1c[nH]cn1.c1c[nH]cn1`, the survivor count (dose: 100.0 mg/kg/injection, schedule: Q01DX005 (ip), vehicle: saline with Tween-80) is 5 of 6 and the survivor count (dose: 200.0 mg/kg/injection, schedule: Q01DX005 (ip), vehicle: saline with Tween-80) was 0 of 6.
